# Many values rest on one well or one pass, so single values are uncertain.
# Chains of the proteins cited; added tags and fusions are not shown. Lines headed by an entry give the natural chain unless they say otherwise; changes in a name come on top.
# UniProt Q86YS7: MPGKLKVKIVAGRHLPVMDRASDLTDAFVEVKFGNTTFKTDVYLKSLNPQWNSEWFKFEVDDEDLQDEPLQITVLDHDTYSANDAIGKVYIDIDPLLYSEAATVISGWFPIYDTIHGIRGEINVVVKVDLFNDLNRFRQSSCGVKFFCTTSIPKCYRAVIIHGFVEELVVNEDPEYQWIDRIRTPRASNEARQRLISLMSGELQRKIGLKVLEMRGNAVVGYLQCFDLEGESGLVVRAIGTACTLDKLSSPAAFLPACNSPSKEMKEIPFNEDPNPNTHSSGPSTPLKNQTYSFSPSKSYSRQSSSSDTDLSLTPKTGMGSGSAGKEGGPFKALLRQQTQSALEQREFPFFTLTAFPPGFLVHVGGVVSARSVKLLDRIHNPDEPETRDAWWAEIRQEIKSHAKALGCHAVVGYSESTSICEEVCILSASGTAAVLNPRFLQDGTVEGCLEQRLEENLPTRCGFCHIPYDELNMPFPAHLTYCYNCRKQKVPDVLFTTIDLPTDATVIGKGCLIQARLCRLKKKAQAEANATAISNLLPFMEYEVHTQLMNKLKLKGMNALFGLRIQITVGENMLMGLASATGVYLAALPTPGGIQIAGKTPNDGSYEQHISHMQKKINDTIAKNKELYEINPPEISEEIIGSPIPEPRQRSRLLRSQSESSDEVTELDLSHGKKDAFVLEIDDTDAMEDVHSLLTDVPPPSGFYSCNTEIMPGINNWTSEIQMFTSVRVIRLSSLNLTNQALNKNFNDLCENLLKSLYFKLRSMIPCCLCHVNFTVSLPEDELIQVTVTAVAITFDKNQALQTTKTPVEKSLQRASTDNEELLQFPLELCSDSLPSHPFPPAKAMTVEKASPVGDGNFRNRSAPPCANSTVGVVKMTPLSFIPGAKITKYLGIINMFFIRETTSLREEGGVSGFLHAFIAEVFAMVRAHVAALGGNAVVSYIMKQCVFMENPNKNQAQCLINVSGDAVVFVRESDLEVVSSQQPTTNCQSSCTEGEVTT
# UniProt O76094: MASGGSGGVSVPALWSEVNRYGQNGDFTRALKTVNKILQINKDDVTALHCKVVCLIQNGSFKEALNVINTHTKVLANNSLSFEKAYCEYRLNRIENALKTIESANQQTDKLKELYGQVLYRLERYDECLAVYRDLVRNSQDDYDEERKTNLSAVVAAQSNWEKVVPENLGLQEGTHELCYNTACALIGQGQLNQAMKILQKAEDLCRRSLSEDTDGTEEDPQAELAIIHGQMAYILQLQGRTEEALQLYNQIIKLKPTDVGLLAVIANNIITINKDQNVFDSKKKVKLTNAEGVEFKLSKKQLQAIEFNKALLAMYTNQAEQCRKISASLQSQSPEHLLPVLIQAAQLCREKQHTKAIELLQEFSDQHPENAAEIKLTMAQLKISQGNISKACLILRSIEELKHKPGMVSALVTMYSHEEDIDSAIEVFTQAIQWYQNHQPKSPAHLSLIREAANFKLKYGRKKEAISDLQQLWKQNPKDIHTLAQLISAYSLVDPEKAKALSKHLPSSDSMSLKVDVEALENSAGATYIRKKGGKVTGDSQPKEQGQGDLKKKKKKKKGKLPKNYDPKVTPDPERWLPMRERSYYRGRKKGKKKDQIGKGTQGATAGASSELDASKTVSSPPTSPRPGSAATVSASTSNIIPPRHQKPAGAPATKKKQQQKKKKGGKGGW
# UniProt A6NHR9: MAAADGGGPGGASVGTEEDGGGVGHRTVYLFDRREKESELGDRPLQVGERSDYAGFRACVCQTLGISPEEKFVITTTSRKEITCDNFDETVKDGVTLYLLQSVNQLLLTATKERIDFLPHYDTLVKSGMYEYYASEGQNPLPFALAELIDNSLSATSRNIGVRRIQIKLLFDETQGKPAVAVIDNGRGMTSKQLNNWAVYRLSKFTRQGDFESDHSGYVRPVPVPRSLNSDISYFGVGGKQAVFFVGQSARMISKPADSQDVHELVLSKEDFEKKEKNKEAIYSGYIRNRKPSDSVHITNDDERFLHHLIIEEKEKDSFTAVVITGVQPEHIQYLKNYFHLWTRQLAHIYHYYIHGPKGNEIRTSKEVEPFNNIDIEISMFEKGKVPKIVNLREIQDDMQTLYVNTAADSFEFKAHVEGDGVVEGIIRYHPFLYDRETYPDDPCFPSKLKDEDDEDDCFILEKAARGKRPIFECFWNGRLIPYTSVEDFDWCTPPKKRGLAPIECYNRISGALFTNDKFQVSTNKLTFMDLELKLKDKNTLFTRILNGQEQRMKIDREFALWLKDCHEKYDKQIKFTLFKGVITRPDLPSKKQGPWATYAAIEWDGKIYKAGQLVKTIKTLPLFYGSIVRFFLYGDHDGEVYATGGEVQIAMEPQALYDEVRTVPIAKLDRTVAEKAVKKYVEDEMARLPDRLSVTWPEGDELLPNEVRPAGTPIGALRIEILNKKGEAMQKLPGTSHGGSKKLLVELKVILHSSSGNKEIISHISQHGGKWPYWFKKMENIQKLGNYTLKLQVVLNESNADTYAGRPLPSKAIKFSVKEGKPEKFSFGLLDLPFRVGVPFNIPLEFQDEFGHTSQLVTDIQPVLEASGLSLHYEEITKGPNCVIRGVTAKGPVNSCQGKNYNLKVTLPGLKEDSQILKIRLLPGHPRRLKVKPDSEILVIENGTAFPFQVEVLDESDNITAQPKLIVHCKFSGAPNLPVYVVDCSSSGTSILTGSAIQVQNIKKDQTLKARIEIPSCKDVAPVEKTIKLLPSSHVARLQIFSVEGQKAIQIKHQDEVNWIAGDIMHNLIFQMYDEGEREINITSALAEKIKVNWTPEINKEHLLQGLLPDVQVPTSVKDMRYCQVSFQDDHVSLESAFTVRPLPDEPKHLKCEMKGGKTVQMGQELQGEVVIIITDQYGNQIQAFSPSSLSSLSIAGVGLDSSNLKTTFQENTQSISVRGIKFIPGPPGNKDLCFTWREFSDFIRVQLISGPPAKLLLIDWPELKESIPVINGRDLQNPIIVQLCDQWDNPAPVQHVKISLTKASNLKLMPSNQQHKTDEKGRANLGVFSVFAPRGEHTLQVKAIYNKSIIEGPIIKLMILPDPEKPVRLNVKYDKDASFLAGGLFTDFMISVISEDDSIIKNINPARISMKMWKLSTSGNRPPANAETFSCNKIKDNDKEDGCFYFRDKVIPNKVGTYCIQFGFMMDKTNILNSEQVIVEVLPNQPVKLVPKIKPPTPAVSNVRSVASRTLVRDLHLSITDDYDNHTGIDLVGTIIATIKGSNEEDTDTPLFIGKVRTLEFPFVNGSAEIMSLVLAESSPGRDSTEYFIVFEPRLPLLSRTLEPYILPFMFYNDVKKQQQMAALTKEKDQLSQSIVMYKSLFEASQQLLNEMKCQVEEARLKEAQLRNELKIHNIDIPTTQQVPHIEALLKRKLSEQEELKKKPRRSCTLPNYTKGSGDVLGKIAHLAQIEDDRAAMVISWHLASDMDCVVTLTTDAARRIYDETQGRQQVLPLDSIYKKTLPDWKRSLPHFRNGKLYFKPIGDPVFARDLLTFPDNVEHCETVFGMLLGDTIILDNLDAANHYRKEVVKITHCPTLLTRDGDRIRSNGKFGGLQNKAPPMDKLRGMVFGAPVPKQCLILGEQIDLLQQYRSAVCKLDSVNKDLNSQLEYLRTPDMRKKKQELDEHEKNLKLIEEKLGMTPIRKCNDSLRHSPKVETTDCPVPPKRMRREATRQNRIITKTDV
# UniProt Q9GZY8: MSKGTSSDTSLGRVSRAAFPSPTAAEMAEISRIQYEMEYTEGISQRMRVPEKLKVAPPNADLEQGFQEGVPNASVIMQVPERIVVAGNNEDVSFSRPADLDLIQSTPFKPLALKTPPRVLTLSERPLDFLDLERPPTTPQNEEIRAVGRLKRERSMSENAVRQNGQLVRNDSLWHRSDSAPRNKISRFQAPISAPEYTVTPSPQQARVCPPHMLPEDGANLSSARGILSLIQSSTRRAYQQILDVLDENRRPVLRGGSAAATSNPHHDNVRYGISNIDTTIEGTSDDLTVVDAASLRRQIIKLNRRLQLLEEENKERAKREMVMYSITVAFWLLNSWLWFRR
# UniProt Q9HAV7: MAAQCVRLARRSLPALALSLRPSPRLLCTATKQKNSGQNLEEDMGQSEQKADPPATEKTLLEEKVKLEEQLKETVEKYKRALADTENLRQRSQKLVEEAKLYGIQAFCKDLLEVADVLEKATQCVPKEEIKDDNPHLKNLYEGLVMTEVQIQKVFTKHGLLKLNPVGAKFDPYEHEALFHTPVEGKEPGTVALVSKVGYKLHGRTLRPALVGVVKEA
# UniProt Q9Y4R8, whole entry: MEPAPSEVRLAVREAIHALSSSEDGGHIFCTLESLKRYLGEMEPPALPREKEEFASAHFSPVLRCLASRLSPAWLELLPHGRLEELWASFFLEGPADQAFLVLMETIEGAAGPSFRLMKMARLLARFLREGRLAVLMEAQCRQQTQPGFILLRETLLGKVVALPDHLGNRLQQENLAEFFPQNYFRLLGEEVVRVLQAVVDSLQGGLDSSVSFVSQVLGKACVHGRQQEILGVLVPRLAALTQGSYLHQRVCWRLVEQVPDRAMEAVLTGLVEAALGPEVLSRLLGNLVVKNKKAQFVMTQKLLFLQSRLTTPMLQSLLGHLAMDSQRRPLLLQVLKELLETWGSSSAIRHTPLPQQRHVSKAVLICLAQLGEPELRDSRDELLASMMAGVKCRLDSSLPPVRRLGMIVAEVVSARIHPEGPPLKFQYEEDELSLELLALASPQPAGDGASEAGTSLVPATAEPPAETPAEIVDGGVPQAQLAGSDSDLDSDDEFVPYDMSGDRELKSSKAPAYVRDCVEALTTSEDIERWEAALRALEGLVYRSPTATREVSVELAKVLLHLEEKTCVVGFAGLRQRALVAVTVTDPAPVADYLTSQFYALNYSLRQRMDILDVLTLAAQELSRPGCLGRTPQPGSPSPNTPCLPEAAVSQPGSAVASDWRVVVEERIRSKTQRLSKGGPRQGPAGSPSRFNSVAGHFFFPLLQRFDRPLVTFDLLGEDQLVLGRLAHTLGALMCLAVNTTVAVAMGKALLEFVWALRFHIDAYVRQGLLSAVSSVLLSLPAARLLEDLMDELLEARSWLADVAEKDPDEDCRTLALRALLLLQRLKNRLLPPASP
# UniProt Q9H4G0, whole entry: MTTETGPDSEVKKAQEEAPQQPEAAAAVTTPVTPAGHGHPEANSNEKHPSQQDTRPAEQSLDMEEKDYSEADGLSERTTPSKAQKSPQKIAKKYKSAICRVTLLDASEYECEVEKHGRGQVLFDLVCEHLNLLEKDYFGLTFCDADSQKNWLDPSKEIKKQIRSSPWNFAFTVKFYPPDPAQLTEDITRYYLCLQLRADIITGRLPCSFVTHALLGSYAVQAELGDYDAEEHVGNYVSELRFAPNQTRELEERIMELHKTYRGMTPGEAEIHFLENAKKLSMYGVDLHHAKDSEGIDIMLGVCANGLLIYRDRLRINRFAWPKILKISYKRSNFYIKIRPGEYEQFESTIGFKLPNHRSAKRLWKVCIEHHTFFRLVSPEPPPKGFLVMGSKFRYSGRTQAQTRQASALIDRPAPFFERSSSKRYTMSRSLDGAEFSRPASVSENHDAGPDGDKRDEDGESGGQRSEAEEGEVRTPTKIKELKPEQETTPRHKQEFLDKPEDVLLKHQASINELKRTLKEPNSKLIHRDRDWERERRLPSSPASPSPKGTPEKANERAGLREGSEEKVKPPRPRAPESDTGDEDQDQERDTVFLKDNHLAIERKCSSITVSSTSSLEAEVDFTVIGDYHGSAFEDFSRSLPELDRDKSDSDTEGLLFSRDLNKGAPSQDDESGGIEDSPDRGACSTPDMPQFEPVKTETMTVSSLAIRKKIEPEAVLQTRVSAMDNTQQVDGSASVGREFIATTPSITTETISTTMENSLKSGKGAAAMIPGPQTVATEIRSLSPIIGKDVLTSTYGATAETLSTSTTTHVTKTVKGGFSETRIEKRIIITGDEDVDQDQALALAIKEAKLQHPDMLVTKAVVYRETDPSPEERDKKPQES
# UniProt P50750, whole entry: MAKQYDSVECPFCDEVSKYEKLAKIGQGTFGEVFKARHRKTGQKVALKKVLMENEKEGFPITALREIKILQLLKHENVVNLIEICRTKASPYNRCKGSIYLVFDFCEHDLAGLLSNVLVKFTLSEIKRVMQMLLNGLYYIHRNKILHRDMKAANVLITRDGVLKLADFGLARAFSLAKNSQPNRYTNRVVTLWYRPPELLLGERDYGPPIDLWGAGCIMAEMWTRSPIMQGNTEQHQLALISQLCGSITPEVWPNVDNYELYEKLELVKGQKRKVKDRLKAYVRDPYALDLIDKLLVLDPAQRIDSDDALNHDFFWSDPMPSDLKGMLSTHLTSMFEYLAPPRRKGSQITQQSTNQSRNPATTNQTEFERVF
# UniProt Q9Y3E7, whole entry: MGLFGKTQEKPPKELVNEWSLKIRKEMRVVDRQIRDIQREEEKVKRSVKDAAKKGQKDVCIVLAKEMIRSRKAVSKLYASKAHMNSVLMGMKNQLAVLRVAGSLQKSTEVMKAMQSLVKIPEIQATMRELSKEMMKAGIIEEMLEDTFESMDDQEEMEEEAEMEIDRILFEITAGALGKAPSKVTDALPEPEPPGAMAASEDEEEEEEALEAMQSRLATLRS
# Compound: [O-][N+](C(C1=C(C(O)=C2)NC(C(C=C3)=CC=C3Cl)C4C1C=CC4)=C2Cl)=O
# Experiment: melting temperature shift (compound 7 minus DMSO); higher = compound stabilises the protein
# Details: 10 µM
# Protocol: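 Thermal proteome profiling (TMT mass spectrometry) in intact DAOY medulloblastoma cells or DAOY lysates treated with 10 µM compound 7 or DMSO, heated at 10 temperatures from 40.5 to 73.8 °C for 3 min. Melting curves were fitted with the Bioconductor TPP package, and the melting point difference between compound and vehicle is reported per protein (single curve per condition).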
# [1] = system: DAOY cell lysate, treatment time: 20 min, 4 °C
# [2] = system: intact DAOY cells, treatment time: 90 min, 37 °C
Target,melting temperature shift [1] [°C],melting temperature shift [2] [°C]
UniProt Q6P1R3,0.455,0.34
C2CD5 (UniProt Q86YS7),-0.0662,-2.32
SLC38A2 (UniProt Q96QD8),-0.142,1.93
PARN (UniProt O95453),-0.291,-1.31
SLC25A11 (UniProt Q02978),0.272,–
BAG4 (UniProt O95429),-2.35,-3.57
RYBP (UniProt Q8N488),1.4,–
SRP72 (UniProt O76094),-0.272,-0.877
LGALS1 (UniProt P09382),0.74,0.00859
PPIE (UniProt Q9UNP9),1.72,1.24
SMCHD1 (UniProt A6NHR9),-1.01,-3.35
DNAJB14 (UniProt Q8TBM8),0.884,–
MRPS26 (UniProt Q9BYN8),2.63,0.0662
MFF (UniProt Q9GZY8),1.05,0.253
UniProt Q9UBZ9,–,-1.85
PDP1 (UniProt Q9P0J1),1.79,-1.16
NAA30 (UniProt Q147X3),0.281,-1.71
UniProt Q9HB65,–,-0.427
PHF3 (UniProt Q92576),0.988,0.507
UniProt Q9HCM4,-0.805,0.104
DERA (UniProt Q9Y315),0.108,1.86
NELFA (UniProt Q9H3P2),-0.311,-3.27
TANC1 (UniProt Q9C0D5),-0.539,-0.0967

# Reformatted tab-delimited: part of the list above
Target	melting temperature shift [1] [°C]	melting temperature shift [2] [°C]
UniProt Q6P1R3	0.455	0.34
SLC38A2 (UniProt Q96QD8)	-0.142	1.93
SLC25A11 (UniProt Q02978)	0.272	–
RYBP (UniProt Q8N488)	1.4	–
LGALS1 (UniProt P09382)	0.74	0.00859
PPIE (UniProt Q9UNP9)	1.72	1.24
SMCHD1 (UniProt A6NHR9)	-1.01	-3.35
DNAJB14 (UniProt Q8TBM8)	0.884	–
MRPS26 (UniProt Q9BYN8)	2.63	0.0662
MFF (UniProt Q9GZY8)	1.05	0.253
UniProt Q9UBZ9	–	-1.85
PDP1 (UniProt Q9P0J1)	1.79	-1.16
NAA30 (UniProt Q147X3)	0.281	-1.71
UniProt Q9HCM4	-0.805	0.104
DERA (UniProt Q9Y315)	0.108	1.86
NELFA (UniProt Q9H3P2)	-0.311	-3.27

# (cont.)

Target,melting temperature shift [1] [°C],melting temperature shift [2] [°C]
UniProt A2RUB6,–,-2.21
UniProt P0CB38,–,0.489
GRPEL1 (UniProt Q9HAV7),0.844,0.0647
CD151 (UniProt P48509),2.58,–
EEF1A1 (UniProt P68104),-0.388,-1.18
UniProt Q12887,1.82,-0.954
WIPF2 (UniProt Q8TF74),-0.58,–
USP33 (UniProt Q8TEY7),1.1,0.42
RPRD1B (UniProt Q9NQG5),-0.086,-0.332
CEPT1 (UniProt Q9Y6K0),1.89,-1.85
RAB32 (UniProt Q13637),-0.474,-1.86
CALCOCO1 (UniProt Q9P1Z2),-0.482,0.275
NME7 (UniProt Q9Y5B8),-0.548,-0.512
TRIM56 (UniProt Q9BRZ2),1.21,0.638
KCTD3 (UniProt Q9Y597),1.05,–
UniProt P03915,0.114,–
PIK3CA (UniProt P42336),0.203,-0.491
SPAG5 (UniProt Q96R06),-1.37,-3.08
TELO2 (UniProt Q9Y4R8),-0.963,-0.0129
UBR5 (UniProt O95071),-0.515,-1
UniProt Q9UMX1,-1.94,–
POFUT1 (UniProt Q9H488),-0.222,0.242
UniProt O96028,2.15,–

Target,melting temperature shift [1] [°C],melting temperature shift [2] [°C]
UniProt P50613,-0.529,0.64
UniProt P40967,1.33,–
NOP9 (UniProt Q86U38),1.09,–
UniProt Q8N4X5,0.0303,0.0106
NDUFB11 (UniProt Q9NX14),2.19,–
UniProt Q8NFJ8,–,-0.173
DEK (UniProt P35659),0.417,-1.16
E2F3 (UniProt O00716),0.289,–
UniProt Q8N9E0,–,-1.33
PABPC4 (UniProt Q13310),-0.157,-0.0152
TAX1BP3 (UniProt O14907),-0.306,0.962
UniProt Q9Y2K7,0.541,-0.287
UniProt Q03013,–,-2.36
QSOX2 (UniProt Q6ZRP7),0.477,1.18
ACADM (UniProt P11310),0.772,-0.138
UniProt Q9NWT8,2.19,-0.942
SCO1 (UniProt O75880),0.364,-0.828
ATP2A2 (UniProt P16615),0.768,-0.796
FDPS (UniProt P14324),-1.1,0.404
ANO10 (UniProt Q9NW15),0.605,-0.468
SENP6 (UniProt Q9GZR1),0.769,–
CTR9 (UniProt Q6PD62),-0.384,0.759
EXOC4 (UniProt Q96A65),-0.756,-1.02

Target,melting temperature shift [1] [°C],melting temperature shift [2] [°C]
MRS2 (UniProt Q9HD23),1.2,-2.17
GNPDA1 (UniProt P46926),-0.596,-0.788
AGAP1 (UniProt Q9UPQ3),–,2.31
PYROXD1 (UniProt Q8WU10),-1.39,–
EPB41L1 (UniProt Q9H4G0),1.63,0.785
CDK9 (UniProt P50750),0.151,1.17
UniProt Q9BWW4,1.15,–
CHMP3 (UniProt Q9Y3E7),-0.872,-0.562
RAB2A (UniProt P61019),1.22,-0.595
ACO2 (UniProt Q99798),0.435,-0.368
MTMR2 (UniProt Q13614),-0.534,–
HNRNPA3 (UniProt P51991),1.5,-0.751
UniProt P54803,–,-1.69
APTX (UniProt Q7Z2E3),1.51,3.5
PLCG1 (UniProt P19174),-1,0.949
ATP5O (UniProt P48047),1.52,-1.29
CMTR1 (UniProt Q8N1G2),-1.06,-0.145
ARHGEF1 (UniProt Q92888),0.00449,0.164
SKA3 (UniProt Q8IX90),0.0188,-0.133
ORC4 (UniProt O43929),-0.335,-0.29
TMOD1 (UniProt P28289),–,-0.336
